In PMC10783616 (Molecular Cell, 2022):
No constants are given. Whether binding was seen depends on the method and setting. Some results given as binding are weak or reduced against the parent protein; the word gives no strength.

Chains of the proteins cited; added tags and fusions are not shown.
UniProt P32598: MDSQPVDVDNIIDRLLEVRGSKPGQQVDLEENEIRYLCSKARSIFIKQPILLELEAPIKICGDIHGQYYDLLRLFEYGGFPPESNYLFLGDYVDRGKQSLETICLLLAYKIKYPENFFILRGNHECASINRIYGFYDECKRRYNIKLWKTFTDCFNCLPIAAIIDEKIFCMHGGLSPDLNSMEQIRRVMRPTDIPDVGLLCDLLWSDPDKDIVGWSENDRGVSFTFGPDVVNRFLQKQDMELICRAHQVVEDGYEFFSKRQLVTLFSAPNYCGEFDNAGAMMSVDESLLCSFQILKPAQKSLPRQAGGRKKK

Key:
[1] = biological target: Glc7 (yeast protein phosphatase 1), recombinant His10-SUMO-Glc7 (S. cerevisiae) (UniProt P32598); experiment: SEC; 5 μM Glc7 with 10 μM Ref2 C-terminal truncations in 50 μl, Superdex 200 Increase 3.2/300; co-migration on SDS-PAGE (Figure S10A); both purified
[2] = biological target: Glc7 (yeast protein phosphatase 1), recombinant His10-SUMO-Glc7 (S. cerevisiae) (UniProt P32598); experiment: crystal structure; chimeric protein Glc7–Ref2_(348-406)–GSGSG–2x(SPSYSPT) on one chain; 40 % 1,4-butanediol, 0.1 M Tris-HCl pH 8.5; 1.85 Å; both purified

binding [1]: binds
binding [2]: binds
B1: Ref2 residues 348–406 (domain or fragment, UniProt P42073 348-406)
chain: ISVQDSNVQSILRNGKPKKARISSIKFLDDSQLIKVYGDDLSNQGLQVSPTQLKKILKP
